Test results published in the supplement of paper PMC12823440, “Inhibitors supercharge kinase turnover through native proteolytic circuits” (Nature, 2025).
Counter-ions that a name gives are not always drawn. Some of the results follow. The calls rarely recur for the same compound in another form.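 Kinases, fused to nanoluciferase, were expressed in K562 cells; luminescence was measured every 4 h from 2 to 18 h as percent of control (DMSO = 100%, positive control = 0%). A time point is decreased if signal falls significantly (2 sigma). Hits were called by the authors by a rule that is not shown; the count of time points alone does not decide it.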

The chains behind the UniProt entries cited, without tags or fusion partners. Where a name states a change or a piece, a line headed by the entry shows the natural chain unless it says otherwise.
UniProt P49137, whole entry, looked up: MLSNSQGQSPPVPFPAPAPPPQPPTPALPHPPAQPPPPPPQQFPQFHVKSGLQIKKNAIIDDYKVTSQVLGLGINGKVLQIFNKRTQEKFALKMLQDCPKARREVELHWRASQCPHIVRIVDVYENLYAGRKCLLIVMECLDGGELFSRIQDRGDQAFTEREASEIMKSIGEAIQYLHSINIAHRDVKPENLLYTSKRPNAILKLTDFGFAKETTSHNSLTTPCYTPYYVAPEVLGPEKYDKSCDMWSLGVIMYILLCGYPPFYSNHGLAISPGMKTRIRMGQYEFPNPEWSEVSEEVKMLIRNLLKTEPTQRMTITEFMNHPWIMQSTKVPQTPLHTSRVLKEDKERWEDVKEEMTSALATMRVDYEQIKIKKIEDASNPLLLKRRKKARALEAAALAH
UniProt Q9BUB5: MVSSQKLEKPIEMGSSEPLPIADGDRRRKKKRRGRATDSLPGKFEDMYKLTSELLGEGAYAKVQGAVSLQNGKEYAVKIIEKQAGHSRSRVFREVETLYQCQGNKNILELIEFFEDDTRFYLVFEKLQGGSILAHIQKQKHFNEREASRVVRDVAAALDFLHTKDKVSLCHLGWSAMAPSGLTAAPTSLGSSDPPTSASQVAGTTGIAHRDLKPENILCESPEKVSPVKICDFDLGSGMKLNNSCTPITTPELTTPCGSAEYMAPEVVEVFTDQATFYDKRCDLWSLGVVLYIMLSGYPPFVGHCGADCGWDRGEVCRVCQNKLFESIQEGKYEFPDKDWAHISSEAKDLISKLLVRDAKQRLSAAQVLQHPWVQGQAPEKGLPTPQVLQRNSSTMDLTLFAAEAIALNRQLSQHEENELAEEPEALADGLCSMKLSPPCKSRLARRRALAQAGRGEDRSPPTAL
UniProt Q16620, whole entry, looked up: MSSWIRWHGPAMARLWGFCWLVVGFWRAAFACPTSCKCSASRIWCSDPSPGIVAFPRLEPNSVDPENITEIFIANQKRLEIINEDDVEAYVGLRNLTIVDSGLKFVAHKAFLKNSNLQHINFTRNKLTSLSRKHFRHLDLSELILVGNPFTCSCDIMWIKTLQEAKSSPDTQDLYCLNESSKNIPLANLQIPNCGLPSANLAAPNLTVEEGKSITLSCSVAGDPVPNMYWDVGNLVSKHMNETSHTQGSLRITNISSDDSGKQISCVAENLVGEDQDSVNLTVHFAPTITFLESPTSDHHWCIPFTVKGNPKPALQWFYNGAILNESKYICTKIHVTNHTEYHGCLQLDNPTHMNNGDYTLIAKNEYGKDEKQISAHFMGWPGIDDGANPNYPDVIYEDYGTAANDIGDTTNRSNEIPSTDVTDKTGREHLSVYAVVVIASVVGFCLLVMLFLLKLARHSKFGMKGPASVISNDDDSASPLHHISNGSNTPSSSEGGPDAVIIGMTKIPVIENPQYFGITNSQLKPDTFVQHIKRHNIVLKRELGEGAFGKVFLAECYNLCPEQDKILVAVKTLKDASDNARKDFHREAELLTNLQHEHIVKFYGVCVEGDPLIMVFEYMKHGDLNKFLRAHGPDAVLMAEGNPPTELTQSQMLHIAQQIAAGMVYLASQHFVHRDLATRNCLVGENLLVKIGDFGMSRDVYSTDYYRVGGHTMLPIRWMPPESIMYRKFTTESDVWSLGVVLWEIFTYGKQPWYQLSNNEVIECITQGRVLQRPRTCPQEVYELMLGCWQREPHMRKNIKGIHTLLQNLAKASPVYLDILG
UniProt O96013: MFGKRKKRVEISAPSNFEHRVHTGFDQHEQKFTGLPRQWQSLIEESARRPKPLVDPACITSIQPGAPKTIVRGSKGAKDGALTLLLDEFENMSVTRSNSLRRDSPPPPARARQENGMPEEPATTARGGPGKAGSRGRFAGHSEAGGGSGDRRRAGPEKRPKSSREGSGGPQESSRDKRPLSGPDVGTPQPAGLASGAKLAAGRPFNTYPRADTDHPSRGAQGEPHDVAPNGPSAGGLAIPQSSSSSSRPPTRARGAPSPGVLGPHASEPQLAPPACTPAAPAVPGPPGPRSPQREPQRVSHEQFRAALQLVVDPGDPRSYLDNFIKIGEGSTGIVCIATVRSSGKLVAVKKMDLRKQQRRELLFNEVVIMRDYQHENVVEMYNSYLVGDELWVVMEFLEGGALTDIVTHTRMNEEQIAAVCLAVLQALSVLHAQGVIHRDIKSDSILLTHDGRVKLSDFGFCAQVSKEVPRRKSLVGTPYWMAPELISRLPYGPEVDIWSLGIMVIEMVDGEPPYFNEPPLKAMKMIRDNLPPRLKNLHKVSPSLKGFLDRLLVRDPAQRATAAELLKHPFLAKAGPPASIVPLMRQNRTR
UniProt Q96KB5: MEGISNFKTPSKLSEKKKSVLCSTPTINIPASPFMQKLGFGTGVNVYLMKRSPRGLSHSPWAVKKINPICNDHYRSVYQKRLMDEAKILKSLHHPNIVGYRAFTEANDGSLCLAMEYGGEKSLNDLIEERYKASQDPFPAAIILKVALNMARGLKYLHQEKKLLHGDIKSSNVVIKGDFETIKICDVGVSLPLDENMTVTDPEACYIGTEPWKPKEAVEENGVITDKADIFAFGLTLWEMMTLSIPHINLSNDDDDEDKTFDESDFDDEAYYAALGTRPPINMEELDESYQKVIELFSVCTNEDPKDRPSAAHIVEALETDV
UniProt Q15118, whole entry, looked up: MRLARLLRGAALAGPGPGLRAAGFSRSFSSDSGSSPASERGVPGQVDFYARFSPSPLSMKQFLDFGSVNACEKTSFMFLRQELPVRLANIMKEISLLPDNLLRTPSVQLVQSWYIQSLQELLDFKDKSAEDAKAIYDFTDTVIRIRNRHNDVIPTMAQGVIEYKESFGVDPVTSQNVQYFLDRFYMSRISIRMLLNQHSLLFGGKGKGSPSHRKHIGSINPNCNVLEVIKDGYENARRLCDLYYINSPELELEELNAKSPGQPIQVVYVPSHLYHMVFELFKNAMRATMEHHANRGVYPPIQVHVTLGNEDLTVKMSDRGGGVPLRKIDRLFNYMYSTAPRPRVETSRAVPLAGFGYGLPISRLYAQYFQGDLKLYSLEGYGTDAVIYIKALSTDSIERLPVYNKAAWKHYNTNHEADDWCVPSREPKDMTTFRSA
UniProt O15530: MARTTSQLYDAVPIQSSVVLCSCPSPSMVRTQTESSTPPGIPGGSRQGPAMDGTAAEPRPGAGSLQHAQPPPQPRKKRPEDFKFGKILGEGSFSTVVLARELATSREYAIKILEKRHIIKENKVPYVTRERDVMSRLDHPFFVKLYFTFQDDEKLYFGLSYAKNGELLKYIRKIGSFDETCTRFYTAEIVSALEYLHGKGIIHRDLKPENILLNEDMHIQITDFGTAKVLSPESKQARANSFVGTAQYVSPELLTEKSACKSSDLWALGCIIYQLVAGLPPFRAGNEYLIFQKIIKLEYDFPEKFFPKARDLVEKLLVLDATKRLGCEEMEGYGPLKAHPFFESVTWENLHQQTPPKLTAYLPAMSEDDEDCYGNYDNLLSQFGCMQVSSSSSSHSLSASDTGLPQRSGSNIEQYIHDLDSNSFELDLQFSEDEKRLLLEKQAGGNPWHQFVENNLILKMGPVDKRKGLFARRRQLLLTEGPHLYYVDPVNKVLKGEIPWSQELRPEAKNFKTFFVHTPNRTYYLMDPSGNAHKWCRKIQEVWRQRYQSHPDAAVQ
UniProt P53350, whole entry: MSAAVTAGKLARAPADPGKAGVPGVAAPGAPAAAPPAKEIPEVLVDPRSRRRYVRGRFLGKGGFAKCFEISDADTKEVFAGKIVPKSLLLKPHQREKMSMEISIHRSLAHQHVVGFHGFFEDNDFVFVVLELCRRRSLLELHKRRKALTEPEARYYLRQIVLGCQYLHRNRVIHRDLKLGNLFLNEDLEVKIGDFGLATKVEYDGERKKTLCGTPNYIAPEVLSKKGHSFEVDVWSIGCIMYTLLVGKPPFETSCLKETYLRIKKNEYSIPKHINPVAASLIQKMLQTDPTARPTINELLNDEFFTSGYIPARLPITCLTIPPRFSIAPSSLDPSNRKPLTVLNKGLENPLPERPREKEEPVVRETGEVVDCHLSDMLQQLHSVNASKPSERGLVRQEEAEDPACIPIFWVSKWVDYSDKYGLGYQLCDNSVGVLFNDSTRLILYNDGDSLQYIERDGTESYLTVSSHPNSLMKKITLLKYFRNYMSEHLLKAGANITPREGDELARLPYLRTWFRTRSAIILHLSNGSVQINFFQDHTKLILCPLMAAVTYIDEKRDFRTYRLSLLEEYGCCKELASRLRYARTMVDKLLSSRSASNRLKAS
UniProt Q13131: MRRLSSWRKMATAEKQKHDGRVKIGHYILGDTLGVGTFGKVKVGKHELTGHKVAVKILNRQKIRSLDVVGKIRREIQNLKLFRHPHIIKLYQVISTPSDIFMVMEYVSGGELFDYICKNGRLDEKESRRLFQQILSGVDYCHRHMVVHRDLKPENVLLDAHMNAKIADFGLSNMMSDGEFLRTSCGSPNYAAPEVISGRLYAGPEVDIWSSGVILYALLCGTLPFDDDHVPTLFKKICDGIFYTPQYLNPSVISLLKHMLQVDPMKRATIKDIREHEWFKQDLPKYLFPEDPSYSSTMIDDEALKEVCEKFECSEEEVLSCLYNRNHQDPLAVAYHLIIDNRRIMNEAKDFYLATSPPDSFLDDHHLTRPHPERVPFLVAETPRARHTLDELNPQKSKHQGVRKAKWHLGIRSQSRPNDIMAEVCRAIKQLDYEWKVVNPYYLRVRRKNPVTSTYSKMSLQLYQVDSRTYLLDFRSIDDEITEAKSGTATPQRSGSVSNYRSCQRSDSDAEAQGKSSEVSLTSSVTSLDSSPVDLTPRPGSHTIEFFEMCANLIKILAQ
UniProt Q16288, whole entry, looked up: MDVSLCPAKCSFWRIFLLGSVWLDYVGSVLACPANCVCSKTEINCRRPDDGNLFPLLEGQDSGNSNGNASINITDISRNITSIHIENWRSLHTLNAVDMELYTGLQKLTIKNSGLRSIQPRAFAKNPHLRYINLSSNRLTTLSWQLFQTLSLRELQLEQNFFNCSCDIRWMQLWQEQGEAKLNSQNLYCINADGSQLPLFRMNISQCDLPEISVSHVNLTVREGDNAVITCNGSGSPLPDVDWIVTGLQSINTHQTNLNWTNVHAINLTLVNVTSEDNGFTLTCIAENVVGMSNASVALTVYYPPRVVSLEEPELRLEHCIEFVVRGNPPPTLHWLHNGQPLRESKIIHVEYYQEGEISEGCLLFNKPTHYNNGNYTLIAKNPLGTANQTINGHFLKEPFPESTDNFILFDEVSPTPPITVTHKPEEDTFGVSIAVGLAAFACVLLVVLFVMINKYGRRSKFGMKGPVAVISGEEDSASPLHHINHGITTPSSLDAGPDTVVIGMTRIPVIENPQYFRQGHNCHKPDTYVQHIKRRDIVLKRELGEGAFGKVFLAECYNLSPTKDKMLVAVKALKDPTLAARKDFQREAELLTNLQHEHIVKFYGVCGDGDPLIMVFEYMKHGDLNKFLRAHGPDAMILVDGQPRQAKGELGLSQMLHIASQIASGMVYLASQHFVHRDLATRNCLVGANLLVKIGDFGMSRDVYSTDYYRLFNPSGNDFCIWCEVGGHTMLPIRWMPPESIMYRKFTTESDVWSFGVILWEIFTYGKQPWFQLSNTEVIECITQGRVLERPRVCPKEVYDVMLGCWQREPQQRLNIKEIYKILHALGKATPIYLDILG

Assays:
Assay in all cases: kinase-Nluc reporter destabilization hit call (1 = scored as downregulated) (binary); higher = compound decreases kinase abundance
Settings in all cases: K562; 2-18 h
MAPK1 = MAPK1 (UniProt P28482)
MAPK4 = MAPK4 (UniProt P31152)
MAPKAPK2 = MAPKAPK2 (UniProt P49137)
MKNK1 = MKNK1 (UniProt Q9BUB5)
NTRK2 = NTRK2 (UniProt Q16620)
PAK4 = PAK4 (UniProt O96013)
PBK = PBK (UniProt Q96KB5)
PDGFRB = PDGFRB (UniProt P09619)
PDK1 = PDK1 (UniProt Q15118)
PDPK1 = PDPK1 (UniProt O15530)
PIK4CA = PIK4CA (UniProt P42356)
PIK4CB = PIK4CB (UniProt Q9UBF8)
PLK1 = PLK1 (UniProt P53350)
PRKAA1 = PRKAA1 (UniProt Q13131)
PRKCA = PRKCA (UniProt P17252)
PTK2 = PTK2 (UniProt Q05397)
PTK2B = PTK2B (UniProt Q14289)
RAF1 = RAF1 (UniProt P04049)
[1] = biological target: RAF1_S257L (clone: RAF1_mut) (UniProt P04049)
NTRK3 = NTRK3 (UniProt Q16288)

| Structure (SMILES) | kinase-Nluc reporter destabilization hit call (MAPK1) | kinase-Nluc reporter destabilization hit call (MAPK4) | kinase-Nluc reporter destabilization hit call (MAPKAPK2) | kinase-Nluc reporter destabilization hit call (MKNK1) | kinase-Nluc reporter destabilization hit call (NTRK2) | kinase-Nluc reporter destabilization hit call (PAK4) | kinase-Nluc reporter destabilization hit call (PBK) | kinase-Nluc reporter destabilization hit call (PDGFRB) | kinase-Nluc reporter destabilization hit call (PDK1) | kinase-Nluc reporter destabilization hit call (PDPK1) | kinase-Nluc reporter destabilization hit call (PIK4CA) | kinase-Nluc reporter destabilization hit call (PIK4CB) | kinase-Nluc reporter destabilization hit call (PLK1) | kinase-Nluc reporter destabilization hit call (PRKAA1) | kinase-Nluc reporter destabilization hit call (PRKCA) | kinase-Nluc reporter destabilization hit call (PTK2) | kinase-Nluc reporter destabilization hit call (PTK2B) | kinase-Nluc reporter destabilization hit call (RAF1) | kinase-Nluc reporter destabilization hit call [1] | kinase-Nluc reporter destabilization hit call (NTRK3) |
| --- | --- | --- | --- | --- | --- | --- | --- | --- | --- | --- | --- | --- | --- | --- | --- | --- | --- | --- | --- | --- |
| Cc1[nH]c(/C=C2\C(=O)Nc3ccc(S(=O)(=O)Cc4c(Cl)cccc4Cl)cc32)c(C)c1C(=O)N1CCC[C@@H]1CN1CCCC1 (2.5 µM) | inactive: 0 | inactive: 0 | inactive: 0 | inactive: 0 | inactive: 0 | inactive: 0 | inactive: 0 | inactive: 0 | inactive: 0 | inactive: 0 | inactive: 0 | inactive: 0 | inactive: 0 | inactive: 0 | inactive: 0 | inactive: 0 | inactive: 0 | inactive: 0 | inactive: 0 | – |
| Cc1c(Cn2c(C)nc3c(C(=O)O)cc(N4CCOCC4)cc32)cccc1C(F)(F)F (10 µM) | inactive: 0 | inactive: 0 | – | inactive: 0 | inactive: 0 | inactive: 0 | inactive: 0 | inactive: 0 | – | inactive: 0 | inactive: 0 | inactive: 0 | inactive: 0 | – | inactive: 0 | inactive: 0 | inactive: 0 | inactive: 0 | – | inactive: 0 |
| COc1cc(C(=O)NC2CCN(C)CC2)ccc1Nc1ncc2c(n1)N(C1CCCC1)CC(F)(F)C(=O)N2C (10 µM) | inactive: 0 | inactive: 0 | inactive: 0 | inactive: 0 | inactive: 0 | inactive: 0 | inactive: 0 | inactive: 0 | inactive: 0 | inactive: 0 | inactive: 0 | inactive: 0 | – | inactive: 0 | inactive: 0 | inactive: 0 | inactive: 0 | inactive: 0 | inactive: 0 | inactive: 0 |
| COc1cc2ncnc(Nc3cccc(O)c3)c2cc1OC (10 µM) | inactive: 0 | inactive: 0 | inactive: 0 | inactive: 0 | inactive: 0 | inactive: 0 | inactive: 0 | inactive: 0 | inactive: 0 | inactive: 0 | inactive: 0 | inactive: 0 | inactive: 0 | inactive: 0 | inactive: 0 | inactive: 0 | inactive: 0 | inactive: 0 | active: 1 | inactive: 0 |
| COc1cc(F)cc([C@@H](CO)NC(=O)[C@@H](C)N2Cc3ccc(-c4nc(NC5CCOCC5)ncc4Cl)cc3C2=O)c1 [ERK1/2 inhibitor 2] (10 µM) | – | inactive: 0 | inactive: 0 | inactive: 0 | inactive: 0 | inactive: 0 | inactive: 0 | inactive: 0 | inactive: 0 | inactive: 0 | inactive: 0 | inactive: 0 | inactive: 0 | inactive: 0 | inactive: 0 | inactive: 0 | inactive: 0 | inactive: 0 | inactive: 0 | inactive: 0 |
| COc1cc(C(=O)NC2CCN(C)CC2)c(F)cc1Nc1ncc2c(n1)N(C1CCCC1)CC(F)(F)C(=O)N2C [TAK-960 (dihydrochloride)] (2.5 µM) | inactive: 0 | inactive: 0 | inactive: 0 | inactive: 0 | inactive: 0 | inactive: 0 | inactive: 0 | inactive: 0 | inactive: 0 | inactive: 0 | inactive: 0 | inactive: 0 | – | inactive: 0 | inactive: 0 | inactive: 0 | inactive: 0 | inactive: 0 | inactive: 0 | inactive: 0 |
| CC(C)(C)c1nc2c3cc[nH]c(=O)c3c3cc(F)ccc3c2[nH]1 [Pyridone 6] (10 µM) | inactive: 0 | inactive: 0 | inactive: 0 | inactive: 0 | inactive: 0 | inactive: 0 | inactive: 0 | – | inactive: 0 | inactive: 0 | inactive: 0 | inactive: 0 | inactive: 0 | inactive: 0 | inactive: 0 | inactive: 0 | inactive: 0 | inactive: 0 | inactive: 0 | inactive: 0 |
| Cc1ccc(F)c(NC(=O)Nc2ccc(-c3cccc4[nH]nc(N)c34)cc2)c1 [Linifanib] (2.5 µM) | inactive: 0 | inactive: 0 | inactive: 0 | inactive: 0 | inactive: 0 | inactive: 0 | inactive: 0 | inactive: 0 | inactive: 0 | inactive: 0 | inactive: 0 | inactive: 0 | inactive: 0 | inactive: 0 | inactive: 0 | active: 1 | inactive: 0 | inactive: 0 | inactive: 0 | – |
| CN(C)C(=O)/C(C#N)=C/c1ccc(-c2nc3cnc4[nH]ccc4c3n2C2CCCCC2)o1 (10 µM) | inactive: 0 | inactive: 0 | inactive: 0 | inactive: 0 | inactive: 0 | inactive: 0 | inactive: 0 | inactive: 0 | inactive: 0 | inactive: 0 | inactive: 0 | inactive: 0 | inactive: 0 | inactive: 0 | inactive: 0 | inactive: 0 | – | inactive: 0 | inactive: 0 | inactive: 0 |
| CCN(CCO)CCCOc1ccc2c(Nc3cc(CC(=O)Nc4cccc(F)c4)[nH]n3)ncnc2c1 [Barasertib-HQPA] (10 µM) | inactive: 0 | inactive: 0 | inactive: 0 | inactive: 0 | inactive: 0 | inactive: 0 | inactive: 0 | inactive: 0 | inactive: 0 | inactive: 0 | inactive: 0 | inactive: 0 | inactive: 0 | inactive: 0 | inactive: 0 | inactive: 0 | inactive: 0 | inactive: 0 | inactive: 0 | inactive: 0 |
| CN1CCN(C2CCN(C(=O)Nc3cc(Oc4ccc(NC(=O)C5(C(=O)Nc6ccc(F)cc6)CC5)c(F)c4)ccn3)CC2)CC1 [Golvatinib] (2.5 µM) | inactive: 0 | inactive: 0 | inactive: 0 | inactive: 0 | – | inactive: 0 | inactive: 0 | inactive: 0 | inactive: 0 | inactive: 0 | inactive: 0 | inactive: 0 | inactive: 0 | inactive: 0 | inactive: 0 | inactive: 0 | inactive: 0 | inactive: 0 | inactive: 0 | inactive: 0 |
| CCN(CCCOc1ccc2c(Nc3cc(CC(=O)Nc4cccc(F)c4)[nH]n3)ncnc2c1)CCOP(=O)(O)O [Barasertib] (10 µM) | inactive: 0 | inactive: 0 | inactive: 0 | inactive: 0 | inactive: 0 | inactive: 0 | inactive: 0 | – | inactive: 0 | inactive: 0 | inactive: 0 | inactive: 0 | inactive: 0 | inactive: 0 | inactive: 0 | inactive: 0 | inactive: 0 | inactive: 0 | inactive: 0 | inactive: 0 |
| COc1ccc(NC(=O)N2CCN(c3nc(N)nc4c3cnn4C)[C@@H](C)C2)c(C)c1 (10 µM) | inactive: 0 | inactive: 0 | inactive: 0 | inactive: 0 | inactive: 0 | inactive: 0 | inactive: 0 | inactive: 0 | inactive: 0 | inactive: 0 | inactive: 0 | – | inactive: 0 | inactive: 0 | inactive: 0 | inactive: 0 | inactive: 0 | inactive: 0 | inactive: 0 | inactive: 0 |
| Cc1cc(C)c(/C=C2\C(=O)Nc3ccccc32)[nH]1 [Semaxinib] (10 µM) | inactive: 0 | inactive: 0 | inactive: 0 | inactive: 0 | inactive: 0 | inactive: 0 | inactive: 0 | – | inactive: 0 | inactive: 0 | inactive: 0 | inactive: 0 | inactive: 0 | inactive: 0 | inactive: 0 | inactive: 0 | – | inactive: 0 | inactive: 0 | inactive: 0 |
| Cn1c(=O)n(-c2ccc(C(C)(C)C#N)cc2)c2c3cc(-c4cnc5ccccc5c4)ccc3ncc21 [Dactolisib (Tosylate)] (10 µM) | inactive: 0 | inactive: 0 | inactive: 0 | inactive: 0 | inactive: 0 | inactive: 0 | inactive: 0 | – | inactive: 0 | inactive: 0 | active: 1 | inactive: 0 | inactive: 0 | inactive: 0 | inactive: 0 | inactive: 0 | inactive: 0 | inactive: 0 | inactive: 0 | inactive: 0 |
| COc1cc2nc(C)nc(N[C@H](C)c3cc(N)cc(C(F)(F)F)c3)c2cc1O[C@H]1CCOC1 (10 µM) | inactive: 0 | inactive: 0 | inactive: 0 | inactive: 0 | inactive: 0 | inactive: 0 | inactive: 0 | inactive: 0 | inactive: 0 | inactive: 0 | inactive: 0 | inactive: 0 | inactive: 0 | inactive: 0 | inactive: 0 | inactive: 0 | inactive: 0 | inactive: 0 | inactive: 0 | inactive: 0 |
| COc1ccc2c(NC(=O)Nc3cccc(C(F)(F)F)n3)ccnc2c1 (10 µM) | inactive: 0 | inactive: 0 | inactive: 0 | inactive: 0 | inactive: 0 | inactive: 0 | inactive: 0 | – | inactive: 0 | inactive: 0 | inactive: 0 | inactive: 0 | inactive: 0 | inactive: 0 | inactive: 0 | inactive: 0 | inactive: 0 | inactive: 0 | inactive: 0 | inactive: 0 |
| CCn1cc(-c2ccnc3[nH]c(-c4cccc(CN(C)C)c4)cc23)c(-c2ccc(NC(=O)N(C)C)cc2)n1 (2.5 µM) | inactive: 0 | inactive: 0 | inactive: 0 | inactive: 0 | inactive: 0 | inactive: 0 | inactive: 0 | inactive: 0 | inactive: 0 | inactive: 0 | inactive: 0 | inactive: 0 | inactive: 0 | inactive: 0 | inactive: 0 | inactive: 0 | inactive: 0 | inactive: 0 | inactive: 0 | inactive: 0 |
| Cc1cccc([C@@H](CO)NC(=O)[C@@H](C)N2Cc3ccc(-c4nc(NC5CCOCC5)ncc4Cl)cc3C2=O)c1 [ERK1/2 inhibitor 1] (10 µM) | – | inactive: 0 | inactive: 0 | inactive: 0 | inactive: 0 | inactive: 0 | inactive: 0 | inactive: 0 | inactive: 0 | inactive: 0 | inactive: 0 | inactive: 0 | inactive: 0 | inactive: 0 | inactive: 0 | inactive: 0 | inactive: 0 | inactive: 0 | inactive: 0 | inactive: 0 |

Single records (already shown). Order of values: kinase-Nluc reporter destabilization hit call (MAPK1)	kinase-Nluc reporter destabilization hit call (MAPK4)	kinase-Nluc reporter destabilization hit call (MAPKAPK2)	kinase-Nluc reporter destabilization hit call (MKNK1)	kinase-Nluc reporter destabilization hit call (NTRK2)	kinase-Nluc reporter destabilization hit call (PAK4)	kinase-Nluc reporter destabilization hit call (PBK)	kinase-Nluc reporter destabilization hit call (PDGFRB)	kinase-Nluc reporter destabilization hit call (PDK1)	kinase-Nluc reporter destabilization hit call (PDPK1)	kinase-Nluc reporter destabilization hit call (PIK4CA)	kinase-Nluc reporter destabilization hit call (PIK4CB)	kinase-Nluc reporter destabilization hit call (PLK1)	kinase-Nluc reporter destabilization hit call (PRKAA1)	kinase-Nluc reporter destabilization hit call (PRKCA)	kinase-Nluc reporter destabilization hit call (PTK2)	kinase-Nluc reporter destabilization hit call (PTK2B)	kinase-Nluc reporter destabilization hit call (RAF1)	kinase-Nluc reporter destabilization hit call [1]	kinase-Nluc reporter destabilization hit call (NTRK3)
Cc1c(Cn2c(C)nc3c(C(=O)O)cc(N4CCOCC4)cc32)cccc1C(F)(F)F (10 µM) as listed: inactive: 0	inactive: 0	–	inactive: 0	inactive: 0	inactive: 0	inactive: 0	inactive: 0	–	inactive: 0	inactive: 0	inactive: 0	inactive: 0	–	inactive: 0	inactive: 0	inactive: 0	inactive: 0	–	inactive: 0
CN(C)C(=O)/C(C#N)=C/c1ccc(-c2nc3cnc4[nH]ccc4c3n2C2CCCCC2)o1 (10 µM) as listed: inactive: 0	inactive: 0	inactive: 0	inactive: 0	inactive: 0	inactive: 0	inactive: 0	inactive: 0	inactive: 0	inactive: 0	inactive: 0	inactive: 0	inactive: 0	inactive: 0	inactive: 0	inactive: 0	–	inactive: 0	inactive: 0	inactive: 0
